The other results are listed elsewhere or left out. Many values rest on one well or one pass, so single values are uncertain.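 The apoptosis fraction was the count of cleaved-PARP antibody-stained nuclei relative to all DNA-stained nuclei, imaged in 1,536-well plates. Screening doses were set so most cells survived, and baseline and induced cleaved-PARP levels vary greatly across cell lines.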
Key:
Assay in all cases: cleaved PARP positive nuclei fraction relative to DMSO control; melanoma cells; higher = more apoptosis
Conditions in all cases: library dose: low library concentration; 72 h
[1] = test system: MZ2-MEL
[2] = test system: MeWo
[3] = test system: RPMI7951
[4] = test system: RVH-421
[5] = test system: SkMel28
[6] = test system: SkMel30
[7] = test system: SkMel5
[8] = test system: UACC257
[9] = test system: UACC62
[10] = test system: WM115
[11] = test system: WM1716
[12] = test system: WM1745
[13] = test system: WM3526
[14] = test system: WM3619
[15] = test system: WM451Lu

SMILES	cleaved PARP positive nuclei fraction [1] [%]	cleaved PARP positive nuclei fraction [2] [%]	cleaved PARP positive nuclei fraction [3] [%]	cleaved PARP positive nuclei fraction [4] [%]	cleaved PARP positive nuclei fraction [5] [%]	cleaved PARP positive nuclei fraction [6] [%]	cleaved PARP positive nuclei fraction [7] [%]	cleaved PARP positive nuclei fraction [8] [%]	cleaved PARP positive nuclei fraction [9] [%]	cleaved PARP positive nuclei fraction [10] [%]	cleaved PARP positive nuclei fraction [11] [%]	cleaved PARP positive nuclei fraction [12] [%]	cleaved PARP positive nuclei fraction [13] [%]	cleaved PARP positive nuclei fraction [14] [%]	cleaved PARP positive nuclei fraction [15] [%]
O=C(Oc1ccc([N+](=O)[O-])cc1)N1CCC(C(O)(c2ccc3c(c2)OCO3)c2ccc3c(c2)OCO3)CC1 + Cn1cc(/C=C2\C(=O)Nc3cccnc32)c2ccccc21 [GW441756] (first compound 1 µM, partner dose 0.4 µM)	99	105	36.4	71.4	112	58.7	74.8	109	38	72.4	14.2	112	58.8	88	102
C[C@]12O[C@H](C[C@]1(O)CO)n1c3ccccc3c3c4c(c5c6ccccc6n2c5c31)CNC4=O [Lestaurtinib] + C=CCNC1=C2C[C@@H](C)C[C@H](OC)[C@H](O)[C@@H](C)/C=C(\C)[C@H](OC(N)=O)[C@@H](OC)/C=C\C=C(/C)C(=O)NC(=CC1=O)C2=O [Tanespimycin] (first compound 0.004 µM, partner dose 0.002 µM)	117	83.1	94.3	138	61.7	24.5	–	–	197	19.9	115	99.2	254	78.3	86
Cn1cc(C2=C(c3cn(C4CCN(Cc5ccccn5)CC4)c4ccccc34)C(=O)NC2=O)c2ccccc21 [Enzastaurin] + C[C@]12O[C@H](C[C@]1(O)CO)n1c3ccccc3c3c4c(c5c6ccccc6n2c5c31)CNC4=O [Lestaurtinib] (first compound 0.8 µM, partner dose 0.004 µM)	35.6	61.9	48.7	52.8	91.2	276	–	–	154	70.7	96.1	236	46.9	91.9	255
C[C@]12O[C@H](C[C@]1(O)CO)n1c3ccccc3c3c4c(c5c6ccccc6n2c5c31)CNC4=O [Lestaurtinib] + CCCCCCCCc1ccc(CCC(N)(CO)CO)cc1 [fingolimod] (first compound 0.004 µM, partner dose 2 µM)	89.8	41.7	64.4	80.9	92.8	83	–	–	69.2	40.1	69.6	113	314	83.4	48
C[C@]12O[C@H](C[C@]1(O)CO)n1c3ccccc3c3c4c(c5c6ccccc6n2c5c31)CNC4=O [Lestaurtinib] + CCN(CC)CCNC(=O)c1c(C)[nH]c(/C=C2\C(=O)Nc3ccc(F)cc32)c1C [sunitinib] (first compound 0.004 µM, partner dose 0.4 µM)	107	32.5	195	44.2	83.9	76.6	–	–	140	176	50.9	107	100	92.7	45
CC(C)(C)c1cnc(CSc2cnc(NC(=O)C3CCNCC3)s2)o1 + C/C(O)=C(\C#N)C(=O)Nc1cc(Br)ccc1Br [LFM-A13] (first compound 0.01 µM, partner dose 2 µM)	160	73	567	288	139	159	62.7	144	249	478	140	128	73.7	79.5	40.8
C[C@]12O[C@H](C[C@]1(O)CO)n1c3ccccc3c3c4c(c5c6ccccc6n2c5c31)CNC4=O [Lestaurtinib] + N.N.[Cl][Pt][Cl] [cisplatin] (first compound 0.004 µM, partner dose 1.6 µM)	85.3	124	80	96.4	89.4	64.3	–	–	92	180	98.2	118	98.7	112	99.7
C[C@]12O[C@H](C[C@]1(O)CO)n1c3ccccc3c3c4c(c5c6ccccc6n2c5c31)CNC4=O [Lestaurtinib] + CS(=O)(=O)c1ccc(C(=O)Nc2ccc(Cl)c(-c3ccccn3)c2)c(Cl)c1 [vismodegib] (first compound 0.004 µM, partner dose 1 µM)	56.1	226	30.8	80.4	128	116	–	–	242	150	172	102	230	84.5	131
CC1(C)CCC(c2ccc(Cl)cc2)=C(CN2CCN(c3ccc(C(=O)NS(=O)(=O)c4ccc(N[C@H](CCN5CCOCC5)CSc5ccccc5)c(S(=O)(=O)C(F)(F)F)c4)cc3)CC2)C1 + C[C@]12O[C@H](C[C@]1(O)CO)n1c3ccccc3c3c4c(c5c6ccccc6n2c5c31)CNC4=O [Lestaurtinib] (first compound 0.4 µM, partner dose 0.004 µM)	202	253	104	59.7	73.8	68.1	–	–	39.9	335	33.3	637	26.6	97.7	228
Cn1sc(=O)n(Cc2ccccc2)c1=O + C[C@]12O[C@H](C[C@]1(O)CO)n1c3ccccc3c3c4c(c5c6ccccc6n2c5c31)CNC4=O [Lestaurtinib] (first compound 0.4 µM, partner dose 0.004 µM)	69.5	106	37.4	83.6	54.3	60.6	–	–	74.9	89.3	67.3	81.9	83.4	99.6	40.7
C[C@]12O[C@H](C[C@]1(O)CO)n1c3ccccc3c3c4c(c5c6ccccc6n2c5c31)CNC4=O [Lestaurtinib] + Nc1ccn([C@@H]2O[C@H](CO)[C@@H](O)C2(F)F)c(=O)n1 [gemcitabine] (first compound 0.004 µM, partner dose 0.0004 µM)	122	180	59.5	46.4	204	96	–	–	105	122	263	146	87.2	137	78.5
C[C@]12O[C@H](C[C@]1(O)CO)n1c3ccccc3c3c4c(c5c6ccccc6n2c5c31)CNC4=O [Lestaurtinib] + Nc1nc(F)nc2c1ncn2[C@@H]1O[C@H](CO)[C@@H](O)[C@@H]1O [fludarabine] (first compound 0.004 µM, partner dose 0.2 µM)	85.8	534	80.8	139	237	851	–	–	330	142	94.1	105	1760	99.6	96.3
C[C@]12O[C@H](C[C@]1(O)CO)n1c3ccccc3c3c4c(c5c6ccccc6n2c5c31)CNC4=O [Lestaurtinib] + CC(=O)c1c(C)c2cnc(Nc3ccc(N4CCNCC4)cn3)nc2n(C2CCCC2)c1=O [palbociclib] (first compound 0.004 µM, partner dose 0.04 µM)	98.6	29.2	34.8	232	104	78.5	–	–	124	200	119	104	97.3	112	67
C[C@]12O[C@H](C[C@]1(O)CO)n1c3ccccc3c3c4c(c5c6ccccc6n2c5c31)CNC4=O [Lestaurtinib] + NC1(c2ccc(-c3nc4ccn5c(=O)[nH]nc5c4cc3-c3ccccc3)cc2)CCC1 [MK2206] (first compound 0.004 µM, partner dose 0.4 µM)	162	423	40.6	357	54.3	147	–	–	88.4	242	510	130	64.4	115	88.9
C[As](C)SC[C@H](NC(=O)CC[C@H](N)C(=O)O)C(=O)NCC(=O)O [Darinaparsin] + O=C1NC(=O)/C(=C/c2ccc(-c3ccc(F)cc3O)o2)S1 [AS252424] (first compound 0.4 µM, partner dose 1 µM)	146	45.9	75	106	86	21.2	59.8	77.7	88.6	111	101	114	40.5	72.5	715
Cn1cncc1[C@@](N)(c1ccc(Cl)cc1)c1ccc2c(c1)c(-c1cccc(Cl)c1)cc(=O)n2C [tipifarnib] + O=C(Oc1ccc([N+](=O)[O-])cc1)N1CCC(C(O)(c2ccc3c(c2)OCO3)c2ccc3c(c2)OCO3)CC1 [JZL184] (first compound 0.01 µM, partner dose 1 µM)	183	36.3	90.1	53.4	71.3	78.7	220	20.8	34.8	112	41.6	119	74.8	75	341
Cc1cn(-c2cc(NC(=O)c3ccc(C)c(Nc4nccc(-c5cccnc5)n4)c3)cc(C(F)(F)F)c2)cn1 [nilotinib] + C[C@]12O[C@H](C[C@]1(O)CO)n1c3ccccc3c3c4c(c5c6ccccc6n2c5c31)CNC4=O [Lestaurtinib] (first compound 0.2 µM, partner dose 0.004 µM)	53.6	61.2	73.9	45.6	69.6	295	–	–	57.5	90.9	85.5	119	71.1	90.9	154
C[C@]12O[C@H](C[C@]1(O)CO)n1c3ccccc3c3c4c(c5c6ccccc6n2c5c31)CNC4=O [Lestaurtinib] + Cn1c(=O)n(-c2ccc(C(C)(C)C#N)cc2)c2c3cc(-c4cnc5ccccc5c4)ccc3ncc21 [NVP-BEZ235] (first compound 0.004 µM, partner dose 0.004 µM)	123	81.7	44.1	167	87.5	51.9	–	–	68.8	104	98.1	105	198	102	126
C[C@]12O[C@H](C[C@]1(O)CO)n1c3ccccc3c3c4c(c5c6ccccc6n2c5c31)CNC4=O [Lestaurtinib] + O=C(O)[C@@H]1[O][Sb](=[O])([O][Sb]2(=[O])[O][C@H]([C@H](O)CO)[C@H](O)[C@H](C(=O)O)[O]2)[O][C@H]([C@H](O)CO)[C@@H]1O [stibogluconate] (first compound 0.004 µM, partner dose 2 µM)	83.2	270	53.2	60	99.1	76.7	–	–	59.8	79.3	164	87.8	40	60.1	86.7
C[C@]12O[C@H](C[C@]1(O)CO)n1c3ccccc3c3c4c(c5c6ccccc6n2c5c31)CNC4=O [Lestaurtinib] + OCc1c[nH]c2ccccc12 [Indole-3-carbinol] (first compound 0.004 µM, partner dose 0.8 µM)	161	690	80.6	105	86.5	76.3	–	–	132	96.4	475	86	154	71.1	96.6
Cc1ccc(Nc2nccc(N(C)c3ccc4c(C)n(C)nc4c3)n2)cc1S(N)(=O)=O [Pazopanib] + C[C@]12O[C@H](C[C@]1(O)CO)n1c3ccccc3c3c4c(c5c6ccccc6n2c5c31)CNC4=O [Lestaurtinib] (first compound 0.4 µM, partner dose 0.004 µM)	64.9	67	99.7	73.9	124	38.1	–	–	103	91.8	121	113	411	90.6	25.8
COc1ccc2c(c1)CCC1C2CCC2(C)C(NCCCCCCN3C(=O)C=CC3=O)CCC12 (centres undefined) + Cc1cc(SCc2sc(-c3ccc(C(F)(F)F)c(F)c3)nc2C)ccc1OCC(=O)O [GW0742] (first compound 0.4 µM, partner dose 2 µM)	131	43.1	44.5	108	59.1	84.8	44.1	53.4	64.6	56.7	102	97	248	84	50.9
C[C@]12O[C@H](C[C@]1(O)CO)n1c3ccccc3c3c4c(c5c6ccccc6n2c5c31)CNC4=O [Lestaurtinib] + CS(=O)(=O)CCNCc1ccc(-c2ccc3ncnc(Nc4ccc(OCc5cccc(F)c5)c(Cl)c4)c3c2)o1 [lapatinib] (first compound 0.004 µM, partner dose 0.8 µM)	66.5	240	143	46.7	81.8	84.9	–	–	167	138	64.1	86.1	170	86	82
C[As](C)SC[C@H](NC(=O)CC[C@H](N)C(=O)O)C(=O)NCC(=O)O [Darinaparsin] + COC(=O)c1sccc1S(=O)(=O)Nc1ccc(Nc2ccccc2)cc1OC [GSK0660] (first compound 0.4 µM, partner dose 1 µM)	101	120	132	25.9	204	38.6	35.6	176	84.2	206	82	88.5	66.3	75.5	63.6

Single entries from the results shown.
CC1(C)CCC(c2ccc(Cl)cc2)=C(CN2CCN(c3ccc(C(=O)NS(=O)(=O)c4ccc(N[C@H](CCN5CCOCC5)CSc5ccccc5)c(S(=O)(=O)C(F)(F)F)c4)cc3)CC2)C1 + C[C@]12O[C@H](C[C@]1(O)CO)n1c3ccccc3c3c4c(c5c6ccccc6n2c5c31)CNC4=O [Lestaurtinib] (first compound 0.4 µM, partner dose 0.004 µM) – cleaved PARP positive nuclei fraction [4] [%]: 59.7
Cn1sc(=O)n(Cc2ccccc2)c1=O + C[C@]12O[C@H](C[C@]1(O)CO)n1c3ccccc3c3c4c(c5c6ccccc6n2c5c31)CNC4=O [Lestaurtinib] (first compound 0.4 µM, partner dose 0.004 µM) – cleaved PARP positive nuclei fraction [4] [%]: 83.6
